The whole screen tested about 300,000 compounds, of which about 5,400 (1.8%) were called active. Inconclusive means that the source gave no clear call. Such entries were picked first, then a sample of the others. Calls follow the shape of the full dose curve; tested in HEK293 cells. Where the call is inconclusive, the potency comes from a doubtful curve fit.
Test: qHTS for inhibitors of binding or entry into cells for Marburg Virus
Details: Marburg virus pseudotyped entry inhibition, cell reporter; activity change, negative = inhibition: at 37.8 µM (top of the series) unless noted
% is scaled to controls: 0 for no effect and ±100 for the full control effect; potency is read from the fitted curve at half-maximal effect.

Compound	Potency	activity change, negative = inhibition
COc1cc2[nH]c(=O)n(CCC(=O)N3CCc4ccccc4C3)c(=O)c2cc1OC	inactive	
O=C(NC1CCCCC1)c1ccc([N+](=O)[O-])o1	inconclusive: 35.5 µM [inhibitor, single point]	
Cc1cccc(N2CCN(CC(=O)NCc3ccc(Cl)cc3)CC2)c1C	inconclusive: 3.55 µM [inhibitor, partial curve, poor fit]	
CN(C)c1ccc(NC(=O)N2CCOCC2)cc1		inactive: 13.3%
C#CCN1C(=O)[C@]2(O[C@H](COc3ccccc3)CC3=CCCC32)c2c(Br)cccc21 (stereo partly drawn)		inactive: 7.9% [at 14.2 µM]
Cc1csc(NC(=O)c2cc(-c3ccncc3)nc3ccccc23)n1	inconclusive: 15.8 µM [inhibitor, single point]	
CC(C)Sc1ncc(Cl)c(C(=O)Nc2ccc(S(=O)(=O)N3CCCCC3)cc2)n1	inconclusive: 10 µM [inhibitor, partial curve, poor fit]	
CCOc1ccc(CCNC(=O)Cn2ccc3ccccc3c2=O)cc1OCC	inconclusive: 5.62 µM [activator, single point]	
O=C(CC1CC2CCC1C2)Nc1nc(-c2ccccn2)cs1 (stereo not drawn)		inactive: -0.961% [at 46.1 µM]
CC(C)c1noc(-c2ccccc2OCC(=O)Nc2cccc([N+](=O)[O-])c2)n1	inconclusive: 1.26 µM [inhibitor, partial curve, poor fit]	
O=C(CSc1nnc(Nc2ccccc2F)s1)NCC1CCCO1 (stereo not drawn)	inconclusive: 31.6 µM [activator, single point]	
Cc1ccc(C)c(-c2ccc(=O)n(Cc3c(F)cccc3Cl)n2)c1	inconclusive: 31.6 µM [inhibitor, single point]	
O=C(Oc1ccc(C(=S)N2CCOCC2)cc1Br)c1cc(Cl)ccc1Cl	inconclusive: 0.0046 µM [activator, full curve, poor fit]	
CCOC(=O)C1CCN(C(=O)CNC(=O)c2nn(-c3ccc(OC)c(Cl)c3)c(=O)c3ccccc23)CC1	inconclusive: 6.31 µM [inhibitor, full curve, poor fit]	
COc1ccc(NC(=O)CSc2nc(-c3cccc(C)c3)[nH]c2-c2ccccc2)cc1OC		inactive: -25.5% [at 46.1 µM]
CC(=O)N1CCc2c(sc3c2c(=O)n(CCc2ccccc2)c(=O)n3Cc2ccccc2C)C1	inconclusive: 28.2 µM [inhibitor, partial curve, poor fit]	
CC(=O)c1cn(CC(=O)Nc2ccc(C)c(C)c2)c2ccccc12	inconclusive: 35.5 µM [inhibitor, partial curve, poor fit]	
O=C(CO/N=C/c1ccc(OC(F)F)cc1)NC1CCCCCC1	inconclusive: 8.91 µM [inhibitor, partial curve]	

2 neighbouring records from above, quoted:
Compound	Potency	activity change, negative = inhibition
CC(C)Sc1ncc(Cl)c(C(=O)Nc2ccc(S(=O)(=O)N3CCCCC3)cc2)n1	inconclusive: 10 µM [inhibitor, partial curve, poor fit]	
CCOc1ccc(CCNC(=O)Cn2ccc3ccccc3c2=O)cc1OCC	inconclusive: 5.62 µM [activator, single point]	
